Laboratory results: the supplement of paper PMC10849652
This is one part of the list.

Amino acid sequences for entries named in this document (tags omitted). A change or cut given only in a name is not applied to a line headed by its entry.
UniProt P0C870: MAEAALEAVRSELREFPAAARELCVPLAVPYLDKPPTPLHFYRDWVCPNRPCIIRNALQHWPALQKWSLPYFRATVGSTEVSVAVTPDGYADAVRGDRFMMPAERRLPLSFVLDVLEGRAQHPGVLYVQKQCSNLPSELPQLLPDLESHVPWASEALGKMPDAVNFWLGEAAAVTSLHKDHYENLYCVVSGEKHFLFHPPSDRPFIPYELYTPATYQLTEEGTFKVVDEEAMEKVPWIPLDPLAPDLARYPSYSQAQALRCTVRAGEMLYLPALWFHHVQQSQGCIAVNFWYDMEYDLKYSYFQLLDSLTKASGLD
UniProt Q9NZM3: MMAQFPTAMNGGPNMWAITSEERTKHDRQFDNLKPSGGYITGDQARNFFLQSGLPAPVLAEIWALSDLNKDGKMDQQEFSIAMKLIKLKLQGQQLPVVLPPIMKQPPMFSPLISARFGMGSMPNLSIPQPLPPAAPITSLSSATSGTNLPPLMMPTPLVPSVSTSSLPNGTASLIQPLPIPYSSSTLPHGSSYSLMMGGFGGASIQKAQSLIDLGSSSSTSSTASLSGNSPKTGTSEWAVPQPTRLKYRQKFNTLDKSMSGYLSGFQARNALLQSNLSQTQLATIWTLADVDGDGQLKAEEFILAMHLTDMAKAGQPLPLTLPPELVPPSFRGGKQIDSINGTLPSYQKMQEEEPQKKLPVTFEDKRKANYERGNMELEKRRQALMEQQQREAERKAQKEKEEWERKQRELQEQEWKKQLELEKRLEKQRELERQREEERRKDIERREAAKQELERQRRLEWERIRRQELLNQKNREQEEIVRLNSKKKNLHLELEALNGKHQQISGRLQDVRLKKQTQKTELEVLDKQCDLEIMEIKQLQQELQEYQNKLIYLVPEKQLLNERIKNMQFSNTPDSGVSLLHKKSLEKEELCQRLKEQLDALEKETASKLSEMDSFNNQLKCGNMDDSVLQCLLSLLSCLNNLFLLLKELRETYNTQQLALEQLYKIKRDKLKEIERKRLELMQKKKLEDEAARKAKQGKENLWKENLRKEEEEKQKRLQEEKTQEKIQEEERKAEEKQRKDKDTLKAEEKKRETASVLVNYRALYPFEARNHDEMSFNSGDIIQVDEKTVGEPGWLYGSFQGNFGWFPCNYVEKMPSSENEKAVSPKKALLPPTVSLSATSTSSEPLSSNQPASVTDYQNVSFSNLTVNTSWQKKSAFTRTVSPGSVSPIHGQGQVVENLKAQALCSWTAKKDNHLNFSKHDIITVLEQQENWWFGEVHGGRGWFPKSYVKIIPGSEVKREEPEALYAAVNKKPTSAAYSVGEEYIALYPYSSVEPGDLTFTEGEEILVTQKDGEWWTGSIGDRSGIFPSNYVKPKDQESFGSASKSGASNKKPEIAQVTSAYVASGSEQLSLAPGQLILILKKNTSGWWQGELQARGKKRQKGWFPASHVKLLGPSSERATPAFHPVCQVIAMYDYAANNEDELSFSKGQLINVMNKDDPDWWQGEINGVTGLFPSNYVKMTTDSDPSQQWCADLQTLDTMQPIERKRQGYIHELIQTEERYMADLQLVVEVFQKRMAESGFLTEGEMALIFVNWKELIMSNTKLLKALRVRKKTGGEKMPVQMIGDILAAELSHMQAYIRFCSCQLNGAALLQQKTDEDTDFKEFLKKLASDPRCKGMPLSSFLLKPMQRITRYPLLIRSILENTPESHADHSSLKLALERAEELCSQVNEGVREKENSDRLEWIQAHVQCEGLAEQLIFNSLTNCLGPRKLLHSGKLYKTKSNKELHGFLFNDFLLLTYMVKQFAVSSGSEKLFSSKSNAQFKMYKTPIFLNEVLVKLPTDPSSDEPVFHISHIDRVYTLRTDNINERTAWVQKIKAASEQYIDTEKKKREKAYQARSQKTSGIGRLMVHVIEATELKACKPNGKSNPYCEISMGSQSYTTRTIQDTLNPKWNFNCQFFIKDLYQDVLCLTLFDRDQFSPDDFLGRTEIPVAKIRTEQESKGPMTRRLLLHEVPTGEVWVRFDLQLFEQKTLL
UniProt Q9H910: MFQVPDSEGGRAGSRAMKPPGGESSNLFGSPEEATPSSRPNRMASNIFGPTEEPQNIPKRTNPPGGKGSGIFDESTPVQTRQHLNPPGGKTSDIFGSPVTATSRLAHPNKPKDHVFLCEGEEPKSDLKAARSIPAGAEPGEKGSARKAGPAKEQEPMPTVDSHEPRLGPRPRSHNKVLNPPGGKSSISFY
UniProt P01042: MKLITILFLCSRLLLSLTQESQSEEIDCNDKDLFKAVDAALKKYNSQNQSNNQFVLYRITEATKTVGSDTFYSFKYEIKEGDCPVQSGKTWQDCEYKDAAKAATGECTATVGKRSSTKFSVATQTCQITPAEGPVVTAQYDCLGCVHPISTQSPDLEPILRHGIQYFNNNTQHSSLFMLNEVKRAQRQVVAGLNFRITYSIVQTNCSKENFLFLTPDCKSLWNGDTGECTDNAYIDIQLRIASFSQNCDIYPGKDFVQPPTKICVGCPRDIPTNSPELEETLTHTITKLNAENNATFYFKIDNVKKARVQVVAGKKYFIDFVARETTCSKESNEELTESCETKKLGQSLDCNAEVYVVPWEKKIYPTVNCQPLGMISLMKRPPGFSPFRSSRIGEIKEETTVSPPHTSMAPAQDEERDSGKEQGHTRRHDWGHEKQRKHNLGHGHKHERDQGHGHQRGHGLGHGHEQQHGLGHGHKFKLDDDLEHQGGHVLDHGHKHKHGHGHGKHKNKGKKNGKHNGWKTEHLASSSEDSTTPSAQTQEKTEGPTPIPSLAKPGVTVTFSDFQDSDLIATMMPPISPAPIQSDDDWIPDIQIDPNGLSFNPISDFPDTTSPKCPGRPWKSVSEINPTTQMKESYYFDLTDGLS
UniProt Q8WYB5, whole entry, looked up: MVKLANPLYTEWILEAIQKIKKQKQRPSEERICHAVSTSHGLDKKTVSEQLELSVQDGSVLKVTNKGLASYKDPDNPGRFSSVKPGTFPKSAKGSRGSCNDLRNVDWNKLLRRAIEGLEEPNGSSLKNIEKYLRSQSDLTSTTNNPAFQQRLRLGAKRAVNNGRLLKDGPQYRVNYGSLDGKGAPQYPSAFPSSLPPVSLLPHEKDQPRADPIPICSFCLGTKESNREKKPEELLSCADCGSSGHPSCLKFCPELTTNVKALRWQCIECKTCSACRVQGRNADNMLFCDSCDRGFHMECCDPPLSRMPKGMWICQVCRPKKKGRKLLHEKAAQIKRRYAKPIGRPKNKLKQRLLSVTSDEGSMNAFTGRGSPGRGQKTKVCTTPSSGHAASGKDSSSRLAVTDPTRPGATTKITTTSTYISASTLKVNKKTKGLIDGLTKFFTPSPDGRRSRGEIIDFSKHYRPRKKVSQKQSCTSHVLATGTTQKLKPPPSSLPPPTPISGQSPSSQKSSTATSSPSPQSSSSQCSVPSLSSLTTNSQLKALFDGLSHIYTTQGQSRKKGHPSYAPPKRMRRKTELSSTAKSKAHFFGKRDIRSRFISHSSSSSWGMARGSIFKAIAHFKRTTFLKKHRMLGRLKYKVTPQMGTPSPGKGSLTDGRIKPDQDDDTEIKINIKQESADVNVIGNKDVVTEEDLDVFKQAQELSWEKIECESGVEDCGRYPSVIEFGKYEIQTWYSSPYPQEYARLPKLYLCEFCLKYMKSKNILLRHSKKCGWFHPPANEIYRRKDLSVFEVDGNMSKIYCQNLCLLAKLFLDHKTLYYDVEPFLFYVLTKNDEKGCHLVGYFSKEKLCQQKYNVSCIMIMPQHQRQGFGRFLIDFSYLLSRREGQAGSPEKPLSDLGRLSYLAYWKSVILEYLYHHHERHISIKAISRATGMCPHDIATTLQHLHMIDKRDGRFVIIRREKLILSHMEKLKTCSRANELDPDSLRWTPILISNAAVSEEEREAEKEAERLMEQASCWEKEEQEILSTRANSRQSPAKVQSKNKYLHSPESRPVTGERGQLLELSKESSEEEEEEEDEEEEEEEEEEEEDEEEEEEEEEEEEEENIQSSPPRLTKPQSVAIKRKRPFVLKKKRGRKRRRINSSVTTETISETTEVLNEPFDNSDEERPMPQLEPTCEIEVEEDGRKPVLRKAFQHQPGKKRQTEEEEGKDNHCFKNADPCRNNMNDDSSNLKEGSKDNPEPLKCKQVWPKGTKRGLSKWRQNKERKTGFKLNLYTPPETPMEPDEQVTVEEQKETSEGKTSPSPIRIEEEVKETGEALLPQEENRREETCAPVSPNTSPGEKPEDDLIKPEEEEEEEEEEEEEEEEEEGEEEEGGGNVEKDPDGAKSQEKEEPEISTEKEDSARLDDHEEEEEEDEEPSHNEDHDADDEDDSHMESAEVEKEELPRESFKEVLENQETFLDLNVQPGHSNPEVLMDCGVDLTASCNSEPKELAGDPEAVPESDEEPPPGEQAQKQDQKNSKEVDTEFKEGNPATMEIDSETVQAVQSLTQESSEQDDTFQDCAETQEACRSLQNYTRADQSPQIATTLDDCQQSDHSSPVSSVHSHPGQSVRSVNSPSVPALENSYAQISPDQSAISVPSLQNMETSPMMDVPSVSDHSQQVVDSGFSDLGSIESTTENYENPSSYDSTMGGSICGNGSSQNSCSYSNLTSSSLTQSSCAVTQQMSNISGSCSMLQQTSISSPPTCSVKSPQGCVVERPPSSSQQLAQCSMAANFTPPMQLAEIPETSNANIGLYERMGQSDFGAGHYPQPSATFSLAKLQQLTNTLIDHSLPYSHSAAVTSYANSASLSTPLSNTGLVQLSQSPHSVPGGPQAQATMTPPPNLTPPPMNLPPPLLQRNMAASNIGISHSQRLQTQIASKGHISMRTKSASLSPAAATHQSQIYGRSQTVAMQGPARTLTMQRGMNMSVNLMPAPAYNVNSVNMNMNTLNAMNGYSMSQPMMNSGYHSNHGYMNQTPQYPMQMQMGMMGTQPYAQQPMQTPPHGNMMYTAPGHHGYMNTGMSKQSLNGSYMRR
UniProt O60268: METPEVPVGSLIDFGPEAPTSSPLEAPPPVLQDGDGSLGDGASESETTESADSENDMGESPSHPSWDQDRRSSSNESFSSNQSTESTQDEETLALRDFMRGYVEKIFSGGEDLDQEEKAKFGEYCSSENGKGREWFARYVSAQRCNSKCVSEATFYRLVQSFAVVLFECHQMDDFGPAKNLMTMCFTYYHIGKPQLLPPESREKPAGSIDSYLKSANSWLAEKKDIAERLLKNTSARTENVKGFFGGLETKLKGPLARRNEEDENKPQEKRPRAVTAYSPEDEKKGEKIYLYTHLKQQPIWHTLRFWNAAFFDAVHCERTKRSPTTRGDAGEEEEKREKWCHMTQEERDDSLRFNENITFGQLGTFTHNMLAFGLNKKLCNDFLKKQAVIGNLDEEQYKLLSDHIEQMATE
UniProt P24390: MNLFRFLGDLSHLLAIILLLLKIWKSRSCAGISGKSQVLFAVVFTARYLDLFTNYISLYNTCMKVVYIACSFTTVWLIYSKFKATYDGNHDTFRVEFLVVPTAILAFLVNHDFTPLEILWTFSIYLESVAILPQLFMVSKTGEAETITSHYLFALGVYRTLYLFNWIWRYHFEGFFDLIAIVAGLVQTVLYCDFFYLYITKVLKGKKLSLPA
UniProt Q9H7Z6: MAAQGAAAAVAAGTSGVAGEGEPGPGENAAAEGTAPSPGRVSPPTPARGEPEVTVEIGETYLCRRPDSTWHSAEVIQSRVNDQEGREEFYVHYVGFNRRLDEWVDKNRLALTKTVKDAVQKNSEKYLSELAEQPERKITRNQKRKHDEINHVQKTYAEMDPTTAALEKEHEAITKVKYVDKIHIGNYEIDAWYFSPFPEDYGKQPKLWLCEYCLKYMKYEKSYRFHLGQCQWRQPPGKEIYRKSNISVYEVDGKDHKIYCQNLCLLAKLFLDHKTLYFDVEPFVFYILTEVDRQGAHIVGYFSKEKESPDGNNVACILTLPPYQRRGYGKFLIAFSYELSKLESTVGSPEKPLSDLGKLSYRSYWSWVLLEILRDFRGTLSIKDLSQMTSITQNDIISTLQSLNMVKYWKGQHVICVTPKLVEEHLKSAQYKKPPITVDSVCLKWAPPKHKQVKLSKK
UniProt O00180: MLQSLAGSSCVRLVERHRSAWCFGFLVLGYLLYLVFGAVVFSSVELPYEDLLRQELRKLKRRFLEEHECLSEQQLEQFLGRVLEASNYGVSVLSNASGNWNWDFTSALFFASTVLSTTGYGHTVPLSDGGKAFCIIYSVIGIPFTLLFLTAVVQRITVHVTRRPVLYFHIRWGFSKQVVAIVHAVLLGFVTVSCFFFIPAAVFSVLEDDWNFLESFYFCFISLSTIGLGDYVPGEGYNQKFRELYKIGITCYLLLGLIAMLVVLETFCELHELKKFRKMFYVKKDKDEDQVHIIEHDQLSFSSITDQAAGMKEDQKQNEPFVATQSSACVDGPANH
UniProt Q9BXK1: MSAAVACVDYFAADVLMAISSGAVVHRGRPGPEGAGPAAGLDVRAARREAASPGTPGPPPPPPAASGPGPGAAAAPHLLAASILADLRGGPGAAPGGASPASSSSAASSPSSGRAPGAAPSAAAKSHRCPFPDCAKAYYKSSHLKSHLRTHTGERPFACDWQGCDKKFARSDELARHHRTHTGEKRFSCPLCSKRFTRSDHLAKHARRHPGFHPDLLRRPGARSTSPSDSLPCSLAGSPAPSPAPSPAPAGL

Legend:
Assay in all cases: log2 fold change, soluble protein after heating vs DMSO (PISA); higher = thermal stabilisation; K562 cells, 10 uM, 30 min; active = over 0.2 and 3.5 SD of the protein, either way, in both replicates (recomputed)
[1] = compound: C#Cc1cccc(Nc2ncnc3cc(OCCOC)c(OCCOC)cc23)c1 [erlotinib]
Procedure, shortened: (§1)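 K562 cells at 2×10^6 cells/mL were exposed to 10 μM compound for 30 min, then aliquots were heated for 3 min across 48°C-58°C, pooled, and extracted in PBS containing 0.5% NP-40 at 4°C. The supernatant after 21,000xg for 90 min was taken as soluble protein and measured by TMTpro 16plex LC-MS/MS with channel sums equalised. Thermal stability is reported relative to control samples, with values from duplicates. Fold changes are given on a log2 scale.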

[2] = compound: C/C(=N\NC(=O)C1=CC(=CC=C1)S(=O)(=O)N2CCOCC2)/C3=C(C=CC(=C3)Cl)O
Procedure, shortened: as §1

[3] = compound: C1=CC(=C(C=C1Cl)C2=NC3=NC=CN=C3C(=N2)NC4=CC=NC=C4)F
Procedure, shortened: as §1

[4] = compound: C1=CC(=CC=C1C2=NC3=C(N2)C=C(C=C3)C(=O)N)OC4=CC=C(C=C4)Cl
Procedure, shortened: as §1

[5] = compound: C1=CC2=C(C=CC(=C2)/C=C\3/C(=O)NC(=NCC4=CC=CS4)S3)N=C1
Procedure, shortened: as §1

[6] = compound: C1=CC2=NC=CN=C2C=C1/C=C/3\C(=O)NC(=O)S3
Procedure, shortened: as §1

[7] = compound: C1=CC=C(C=C1)C2=NC(=C(N2)C3=CC=NC=C3)C4=CC(=C(C=C4)Cl)O
Procedure, shortened: as §1

[8] = compound: C1=CC=C2C(=C1)C3=NNC4=CC=CC(=C43)C2=O
Procedure, shortened: as §1

[9] = compound: C1CCN(C1)C(=O)NC2=CC=CC(=C2)NC3=NC=C(C(=N3)NCCC4=CN=CN4)Br
Procedure, shortened: as §1

[10] = compound: C1CN(CCC1(CC2=CC=C(C=C2)Cl)N)C3=NC=NC4=C3C=CN4
Procedure, shortened: as §1

Measured: log2 fold change

KDM5C (UniProt P41229)
inactive: [1] 0.003 | [2] -0.218 | [3] -0.045 | [4] -0.091 | [5] 0.092 | [6] 0.012 | [7] -0.087 | [8] 0.13 | [9] -0.001 | [10] 0.055

JMJD7 (UniProt P0C870)
inactive: [1] 0.167 | [3] 0.2 | [4] -0.083 | [6] -0.105

KCNK5 (UniProt O95279)
inactive: [1] -0.101 | [3] -0.128 | [4] 0.077 | [6] 0.095

ITSN2 (UniProt Q9NZM3)
inactive: [1] 0.059 | [4] -0.551

KIFC3 isoform 6 (UniProt Q9BVG8)
inactive: [1] 0.154 | [3] -0.098 | [4] -0.025 | [6] 0.074 | [7] -0.227 | [9] 0.071 | [10] -0.06

KIAA0930 isoform 2 (UniProt Q6ICG6)
inactive: [1] 0.058 | [3] 0.024 | [4] -0.001 | [6] 0.006

JAK3 (UniProt P52333)
inactive: [1] -0.178 | [3] 0.062 | [4] -0.013 | [6] 0.021 | [7] -0.207 | [9] 0.059 | [10] -0.024

KDM2A (UniProt Q9Y2K7)
inactive: [1] -0.023 | [3] 0.149 | [4] 0.031 | [6] -0.017 | [7] 0.14 | [9] -0.085 | [10] 0.099

JPT2 isoform 2 (UniProt Q9H910)
inactive: [1] 0.021 | [2] -0.115 | [4] 0.01 | [5] -0.038 | [6] 0.034 | [8] -0.111 | [9] 0.072 | [10] 0.033

KLHDC8B (UniProt Q8IXV7)
inactive: [1] -0.221 | [2] 0.05 | [4] 0.172 | [5] -0.079 | [6] 0.247 | [7] -0.243 | [8] 0.102 | [9] 0.088 | [10] -0.085

KISS1R (UniProt Q969F8)
inactive: [1] -0.173 | [3] -0.03 | [4] -0.013 | [6] 0.179 | [7] -0.053 | [9] -0.048 | [10] 0.08

KNL1 (UniProt Q8NG31)
inactive: [1] 0.166 | [3] -0.338 | [4] 0.099 | [7] -0.163 | [9] -0.037 | [10] 0.136

KCNN4 (UniProt O15554)
inactive: [1] 0.035 | [2] -0.021 | [4] 0.097 | [5] -0.02 | [6] -0.044 | [7] 0.022 | [8] 0.046 | [9] -0.074 | [10] -0.041

KNG1 (UniProt P01042)
inactive: [1] -0.081 | [2] -0.121 | [4] 0.101 | [5] 0.07 | [6] -0.054 | [7] -0.136 | [8] -0.073 | [9] 0.023 | [10] 0.19

KRIT1 (UniProt O00522)
inactive: [1] 0.07 | [3] 0.19 | [4] 0.007 | [6] 0.163 | [7] -0.118

KAT6B (UniProt Q8WYB5)
inactive: [1] 0.029 | [2] 0.004 | [4] 0.145 | [5] -0.029 | [6] 0.034 | [7] 0 | [8] -0.092 | [9] -0.012 | [10] -0.017

KMT2E (UniProt Q8IZD2)
inactive: [1] 0.029 | [3] 0.005 | [4] 0.029

KIF13B (UniProt Q9NQT8)
inactive: [1] -0.031 | [2] 0.016 | [3] -0.033 | [4] 0.06 | [5] 0.095 | [6] -0.037 | [8] 0.086 | [9] 0.077 | [10] 0.021

KIAA1143 (UniProt Q96AT1)
inactive: [1] 0.006 | [2] -0.152 | [3] -0.149 | [4] 0.024 | [5] 0.06 | [6] -0.033 | [7] 0.026 | [8] -0.137 | [9] 0.038 | [10] 0.053

KNOP1 (UniProt Q1ED39)
inactive: [1] 0.341 | [2] -0.445 | [4] -0.098 | [5] 0.012 | [6] -0.016 | [7] 0.059 | [8] -0.095 | [9] 0.05 | [10] -0.127

KIF21B (UniProt O75037)
inactive: [1] 0.117 | [3] 0.022 | [4] -0.165 | [7] -0.039

KIAA0513 (UniProt O60268)
inactive: [1] 0.161 | [2] 0.146 | [4] -0.203 | [5] 0 | [6] 0.165 | [8] 0.048 | [9] -0.111 | [10] 0.048

KDELR1 (UniProt P24390)
inactive: [1] -0.092 | [3] -0.07 | [4] 0.004 | [6] -0.151 | [7] -0.104 | [9] -0.052 | [10] 0.136

KDELR3 (UniProt O43731)
inactive: [1] -0.067 | [2] -0.05 | [4] 0.049 | [5] 0.059 | [6] 0.139 | [8] -0.166 | [9] 0.066 | [10] -0.176

KIAA1109 (UniProt Q2LD37)
inactive: [1] 0.003 | [4] -0.019

KALRN (UniProt O60229)
inactive: [1] 0.199 | [3] -0.062 | [4] -0.129 | [6] 0

JTB (UniProt O76095)
inactive: [1] 0.049 | [2] -0.124 | [3] 0.111 | [4] -0.029 | [5] -0.117 | [6] -0.001 | [8] 0.267 | [9] 0.106 | [10] 0.044

KAT8 isoform 2 (UniProt Q9H7Z6)
inactive: [1] 0.046 | [2] 0.02 | [4] -0.062 | [5] 0.019 | [6] 0.058 | [7] -0.248 | [8] -0.064 | [9] -0.027 | [10] -0.003

Quoted from above (2 entries):
KNOP1 (UniProt Q1ED39)
inactive: [1] 0.341 | [2] -0.445 | [4] -0.098 | [5] 0.012 | [6] -0.016 | [7] 0.059 | [8] -0.095 | [9] 0.05 | [10] -0.127

KIF21B (UniProt O75037)
inactive: [1] 0.117 | [3] 0.022 | [4] -0.165 | [7] -0.039

Additional results

KIF14 (UniProt Q15058)
inactive: [1] 0.348 | [2] -0.254 | [3] -0.206 | [4] 0.169 | [5] 0.017 | [6] 0.128 | [8] 0.041

KLHL7 (UniProt Q8IXQ5)
inactive: [1] 0.042 | [2] 0.069 | [3] 0.054 | [4] 0.014 | [5] 0.227 | [6] 0.001 | [8] -0.101

KCNH2 (UniProt Q12809)
inactive: [1] 0.057 | [3] -0.352 | [4] 0.054 | [6] -0.029 | [7] 0.188

KSR2 (UniProt Q6VAB6)
inactive: [1] 0.033 | [3] -0.183 | [4] 0.086

KCNK1 (UniProt O00180)
inactive: [1] -0.06 | [3] -0.044 | [4] 0.028 | [6] 0.048 | [7] -0.06

KIAA1755 (UniProt Q5JYT7)
inactive: [1] -0.026 | [3] -0.166 | [4] -0.024 | [6] 0.08 | [7] -0.056 | [9] 0.094 | [10] 0.024

KLF16 (UniProt Q9BXK1)
inactive: [1] 0.022 | [2] -0.096 | [4] 0.014 | [5] -0.224 | [6] 0.031 | [8] -0.046 | [9] 0.034 | [10] 0.031
